Reference: article doi:10.1101/2022.05.18.492435

The chains behind the UniProt entries cited, without tags or fusion partners.
UniProt Q99496: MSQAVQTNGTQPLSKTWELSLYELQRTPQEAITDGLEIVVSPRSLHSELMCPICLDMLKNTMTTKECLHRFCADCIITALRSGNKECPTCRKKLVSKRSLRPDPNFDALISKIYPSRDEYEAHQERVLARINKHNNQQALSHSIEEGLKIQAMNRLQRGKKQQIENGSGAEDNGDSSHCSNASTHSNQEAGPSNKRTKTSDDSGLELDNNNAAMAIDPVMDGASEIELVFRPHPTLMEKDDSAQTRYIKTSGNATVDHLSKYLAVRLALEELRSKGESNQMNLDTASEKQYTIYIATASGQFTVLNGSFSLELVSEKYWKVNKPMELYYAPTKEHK
UniProt P35226: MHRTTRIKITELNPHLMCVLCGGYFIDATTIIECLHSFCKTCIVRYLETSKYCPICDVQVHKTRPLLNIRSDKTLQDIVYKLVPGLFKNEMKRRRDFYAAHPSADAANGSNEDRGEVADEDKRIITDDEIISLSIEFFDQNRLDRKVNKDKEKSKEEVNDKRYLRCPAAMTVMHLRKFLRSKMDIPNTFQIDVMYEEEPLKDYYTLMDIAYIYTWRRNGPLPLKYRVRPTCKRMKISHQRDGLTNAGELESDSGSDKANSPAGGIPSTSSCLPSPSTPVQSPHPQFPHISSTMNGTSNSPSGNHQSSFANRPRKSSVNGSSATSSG
UniProt Q9BSM1: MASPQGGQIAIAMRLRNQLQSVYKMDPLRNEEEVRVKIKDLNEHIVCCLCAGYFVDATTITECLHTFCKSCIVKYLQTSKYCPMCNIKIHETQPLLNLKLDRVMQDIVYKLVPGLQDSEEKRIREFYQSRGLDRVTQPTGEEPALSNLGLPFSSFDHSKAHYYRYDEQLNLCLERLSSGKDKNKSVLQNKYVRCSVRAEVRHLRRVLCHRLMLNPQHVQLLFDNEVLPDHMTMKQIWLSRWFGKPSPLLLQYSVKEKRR
UniProt Q86SE9: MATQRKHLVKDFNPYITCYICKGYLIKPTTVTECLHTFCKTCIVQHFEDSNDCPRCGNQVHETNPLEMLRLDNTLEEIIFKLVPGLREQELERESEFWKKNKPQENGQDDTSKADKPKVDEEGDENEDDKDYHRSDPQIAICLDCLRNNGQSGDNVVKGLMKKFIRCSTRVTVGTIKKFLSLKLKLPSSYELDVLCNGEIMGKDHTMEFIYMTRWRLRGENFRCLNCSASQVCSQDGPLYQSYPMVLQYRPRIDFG

T1: PCGF2 (human (endogenous in NT2)) (UniProt P35227)
T1 sequence: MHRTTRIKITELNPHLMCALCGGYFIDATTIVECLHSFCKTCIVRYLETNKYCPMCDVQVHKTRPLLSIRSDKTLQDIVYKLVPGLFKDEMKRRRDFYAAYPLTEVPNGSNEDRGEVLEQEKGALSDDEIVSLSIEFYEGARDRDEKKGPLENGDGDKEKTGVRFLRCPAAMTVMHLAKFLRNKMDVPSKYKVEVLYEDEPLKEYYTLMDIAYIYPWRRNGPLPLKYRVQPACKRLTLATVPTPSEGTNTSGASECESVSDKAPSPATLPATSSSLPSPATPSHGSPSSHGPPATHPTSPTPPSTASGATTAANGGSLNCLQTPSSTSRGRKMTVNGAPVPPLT

B1: PCGF2 (protein, UniProt P35227 1-344)
chain: MHRTTRIKITELNPHLMCALCGGYFIDATTIVECLHSFCKTCIVRYLETNKYCPMCDVQVHKTRPLLSIRSDKTLQDIVYKLVPGLFKDEMKRRRDFYAAYPLTEVPNGSNEDRGEVLEQEKGALSDDEIVSLSIEFYEGARDRDEKKGPLENGDGDKEKTGVRFLRCPAAMTVMHLAKFLRNKMDVPSKYKVEVLYEDEPLKEYYTLMDIAYIYPWRRNGPLPLKYRVQPACKRLTLATVPTPSEGTNTSGASECESVSDKAPSPATLPATSSSLPSPATPSHGSPSSHGPPATHPTSPTPPSTASGATTAANGGSLNCLQTPSSTSRGRKMTVNGAPVPPLT
B2: PCGF3 (protein, UniProt Q3KNV8 1-242)
chain: MLTRKIKLWDINAHITCRLCSGYLIDATTVTECLHTFCRSCLVKYLEENNTCPTCRIVIHQSHPLQYIGHDRTMQDIVYKLVPGLQEAEMRKQREFYHKLGMEVPGDIKGETCSAKQHLDSHRNGETKADDSSNKEAAEEKPEEDNDYHRSDEQVSICLECNSSKLRGLKRKWIRCSAQATVLHLKKFIAKKLNLSSFNELDILCNEEILGKDHTLKFVVVTRWRFKKAPLLLHYRPKMDLL
B3: PCGF6 (protein, UniProt Q9BYE7 1-350)
chain: MEGVAVVTAGSVGAAKTEGAAALPPPPPVSPPALTPAPAAGEEGPAPLSETGAPGCSGSRPPELEPERSLGRFRGRFEDEDEELEEEEELEEEEEEEEEDMSHFSLRLEGGRQDSEDEEERLINLSELTPYILCSICKGYLIDATTITECLHTFCKSCIVRHFYYSNRCPKCNIVVHQTQPLYNIRLDRQLQDIVYKLVINLEEREKKQMHDFYKERGLEVPKPAVPQPVPSSKGRSKKVLESVFRIPPELDMSLLLEFIGANEGTGHFKPLEKKFVRVSGEATIGHVEKFLRRKMGLDPACQVDIICGDHLLEQYQTLREIRRAIGDAAMQDGLLVLHYGLVVSPLKIT
B4: KDM2B (protein, UniProt Q8NHM5 1-1336)
chain: MAGPQMGGSAEDHPPRKRHAAEKQKKKTVIYTKCFEFESATQRPIDRQRYDENEDLSDVEEIVSVRGFSLEEKLRSQLYQGDFVHAMEGKDFNYEYVQREALRVPLIFREKDGLGIKMPDPDFTVRDVKLLVGSRRLVDVMDVNTQKGTEMSMSQFVRYYETPEAQRDKLYNVISLEFSHTKLEHLVKRPTVVDLVDWVDNMWPQHLKEKQTEATNAIAEMKYPKVKKYCLMSVKGCFTDFHIDFGGTSVWYHVFRGGKIFWLIPPTLHNLALYEEWVLSGKQSDIFLGDRVERCQRIELKQGYTFFIPSGWIHAVYTPVDSLVFGGNILHSFNVPMQLRIYEIEDRTRVQPKFRYPFYYEMCWYVLERYVYCVTQRSHLTQEYQRESMLIDAPRKPSIDGFSSDSWLEMEEEACDQQPQEEEEKDEEGEGRDRAPKPPTDGSTSPTSTPSEDQEALGKKPKAPALRFLKRTLSNESEESVKSTTLAVDYPKTPTGSPATEVSAKWTHLTEFELKGLKALVEKLESLPENKKCVPEGIEDPQALLEGVKNVLKEHADDDPSLAITGVPVVTWPKKTPKNRAVGRPKGKLGPASAVKLAANRTTAGARRRRTRCRKCEACLRTECGECHFCKDMKKFGGPGRMKQSCIMRQCIAPVLPHTAVCLVCGEAGKEDTVEEEEGKFNLMLMECSICNEIIHPGCLKIKESEGVVNDELPNCWECPKCNHAGKTGKQKRGPGFKYASNLPGSLLKEQKMNRDNKEGQEPAKRRSECEEAPRRRSDEHSKKVPPDGLLRRKSDDVHLRKKRKYEKPQELSGRKRASSLQTSPGSSSHLSPRPPLGSSLSPWWRSSLTYFQQQLKPGKEDKLFRKKRRSWKNAEDRMALANKPLRRFKQEPEDELPEAPPKTRESDHSRSSSPTAGPSTEGAEGPEEKKKVKMRRKRRLPNKELSRELSKELNHEIQRTENSLANENQQPIKSEPESEGEEPKRPPGICERPHRFSKGLNGTPRELRHQLGPSLRSPPRVISRPPPSVSPPKCIQMERHVIRPPPISPPPDSLPLDDGAAHVMHREVWMAVFSYLSHQDLCVCMRVCRTWNRWCCDKRLWTRIDLNHCKSITPLMLSGIIRRQPVSLDLSWTNISKKQLSWLINRLPGLRDLVLSGCSWIAVSALCSSSCPLLRTLDVQWVEGLKDAQMRDLLSPPTDNRPGQMDNRSKLRNIVELRLAGLDITDASLRLIIRHMPLLSKLHLSYCNHVTDQSINLLTAVGTTTRDSLTEINLSDCNKVTDQCLSFFKRCGNICHIDLRYCKQVTKEGCEQFIAEMSVSVQFGQVEEKLLQKLS
B5: PHC3 (protein, UniProt Q8NDX5 1-983)
chain: MDTEPNPGTSSVSTTTSSTTTTTITTSSSRMQQPQISVYSGSDRHAVQVIQQALHRPPSSAAQYLQQMYAAQQQHLMLHTAALQQQHLSSSQLQSLAAVQASLSSGRPSTSPTGSVTQQSSMSQTSINLSTSPTPAQLISRSQASSSTSGSITQQTMLLGSTSPTLTASQAQMYLRAQMLIFTPATTVAAVQSDIPVVSSSSSSSCQSAATQVQNLTLRSQKLGVLSSSQNGPPKSTSQTQSLTICHNKTTVTSSKISQRDPSPESNKKGESPSLESRSTAVTRTSSIHQLIAPASYSPIQPHSLIKHQQIPLHSPPSKVSHHQLILQQQQQQIQPITLQNSTQDPPPSQHCIPLQNHGLPPAPSNAQSQHCSPIQSHPSPLTVSPNQSQSAQQSVVVSPPPPHSPSQSPTIIIHPQALIQPHPLVSSALQPGPNLQQSTANQVQATAQLNLPSHLPLPASPVVHIGPVQQSALVSPGQQIVSPSHQQYSSLQSSPIPIASPPQMSTSPPAQIPPLPLQSMQSLQVQPEILSQGQVLVQNALVSEEELPAAEALVQLPFQTLPPPQTVAVNLQVQPPAPVDPPVVYQVEDVCEEEMPEESDECVRMDRTPPPPTLSPAAITVGRGEDLTSEHPLLEQVELPAVASVSASVIKSPSDPSHVSVPPPPLLLPAATTRSNSTSMHSSIPSIENKPPQAIVKPQILTHVIEGFVIQEGLEPFPVSRSSLLIEQPVKKRPLLDNQVINSVCVQPELQNNTKHADNSSDTEMEDMIAEETLEEMDSELLKCEFCGKMGYANEFLRSKRFCTMSCAKRYNVSCSKKFALSRWNRKPDNQSLGHRGRRPSGPDGAAREHILRQLPITYPSAEEDLASHEDSVPSAMTTRLRRQSERERERELRDVRIRKMPENSDLLPVAQTEPSIWTVDDVWAFIHSLPGCQDIADEFRAQEIDGQALLLLKEDHLMSAMNIKLGPALKICARINSLKES

Columns and labels:
Experiment in all cases: affinity purification with mass spectrometry
[1] = target: RNF2 (human (endogenous in NT2)) (UniProt Q99496)
[2] = target: T1, PCGF2 (human (endogenous in NT2))
[3] = target: PCGF4 (human (endogenous in NT2)) (UniProt P35226)
[4] = target: PCGF1 (human (endogenous in NT2)) (UniProt Q9BSM1)

Row | Molecule | binding [1] | binding [2] | binding [3] | binding [4]
1 | PCGF5 (from UniProt Q86SE9 1-256) | binds | – | – | –
2 | B1 | binds | – | – | –
3 | B2 | binds | – | – | –
4 | B3 | binds | – | – | –
5 | B4 | – | binds | binds | binds
6 | B5 | – | binds | binds | binds

These are yes or no findings as the source states them, for the method shown. Binding seen in cells or lysates may run through a third protein. A yes stands for co-enrichment or nearness to the bait. Other partners may have been found.
